For test [1], the target named is T1, DYNLRB2, yeast two-hybrid bait (in pGBKT7) (mouse) (UniProt Q9DAJ5).
T1 sequence: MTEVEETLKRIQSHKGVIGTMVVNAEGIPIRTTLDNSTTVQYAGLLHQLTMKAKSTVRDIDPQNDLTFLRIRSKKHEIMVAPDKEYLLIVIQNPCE
Nature of the test: two-hybrid; baits in pGBKT7 and prey in pGADT7 co-transformed into yeast strain AH109; selection on SD-tryptophan-leucine-histidine-adenine plates.

Amino acid sequences for entries named in this document (tags omitted).
UniProt O88485: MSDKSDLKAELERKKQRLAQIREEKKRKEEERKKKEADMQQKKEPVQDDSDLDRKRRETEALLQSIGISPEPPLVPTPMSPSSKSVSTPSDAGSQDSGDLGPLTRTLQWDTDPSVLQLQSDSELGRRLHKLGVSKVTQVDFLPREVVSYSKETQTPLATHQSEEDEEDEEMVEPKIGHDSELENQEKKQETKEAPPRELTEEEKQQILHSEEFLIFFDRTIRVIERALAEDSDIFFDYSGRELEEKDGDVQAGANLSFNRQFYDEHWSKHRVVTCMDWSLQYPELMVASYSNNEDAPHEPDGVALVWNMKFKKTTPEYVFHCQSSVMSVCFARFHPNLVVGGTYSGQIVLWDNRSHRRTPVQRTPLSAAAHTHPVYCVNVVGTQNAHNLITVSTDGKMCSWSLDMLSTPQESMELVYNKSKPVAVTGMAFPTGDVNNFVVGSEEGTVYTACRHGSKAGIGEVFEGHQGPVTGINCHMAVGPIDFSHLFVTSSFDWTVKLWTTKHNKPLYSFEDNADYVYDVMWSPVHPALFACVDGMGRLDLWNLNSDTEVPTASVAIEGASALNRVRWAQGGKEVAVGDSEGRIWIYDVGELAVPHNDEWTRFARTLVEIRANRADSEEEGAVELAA
UniProt Q14204: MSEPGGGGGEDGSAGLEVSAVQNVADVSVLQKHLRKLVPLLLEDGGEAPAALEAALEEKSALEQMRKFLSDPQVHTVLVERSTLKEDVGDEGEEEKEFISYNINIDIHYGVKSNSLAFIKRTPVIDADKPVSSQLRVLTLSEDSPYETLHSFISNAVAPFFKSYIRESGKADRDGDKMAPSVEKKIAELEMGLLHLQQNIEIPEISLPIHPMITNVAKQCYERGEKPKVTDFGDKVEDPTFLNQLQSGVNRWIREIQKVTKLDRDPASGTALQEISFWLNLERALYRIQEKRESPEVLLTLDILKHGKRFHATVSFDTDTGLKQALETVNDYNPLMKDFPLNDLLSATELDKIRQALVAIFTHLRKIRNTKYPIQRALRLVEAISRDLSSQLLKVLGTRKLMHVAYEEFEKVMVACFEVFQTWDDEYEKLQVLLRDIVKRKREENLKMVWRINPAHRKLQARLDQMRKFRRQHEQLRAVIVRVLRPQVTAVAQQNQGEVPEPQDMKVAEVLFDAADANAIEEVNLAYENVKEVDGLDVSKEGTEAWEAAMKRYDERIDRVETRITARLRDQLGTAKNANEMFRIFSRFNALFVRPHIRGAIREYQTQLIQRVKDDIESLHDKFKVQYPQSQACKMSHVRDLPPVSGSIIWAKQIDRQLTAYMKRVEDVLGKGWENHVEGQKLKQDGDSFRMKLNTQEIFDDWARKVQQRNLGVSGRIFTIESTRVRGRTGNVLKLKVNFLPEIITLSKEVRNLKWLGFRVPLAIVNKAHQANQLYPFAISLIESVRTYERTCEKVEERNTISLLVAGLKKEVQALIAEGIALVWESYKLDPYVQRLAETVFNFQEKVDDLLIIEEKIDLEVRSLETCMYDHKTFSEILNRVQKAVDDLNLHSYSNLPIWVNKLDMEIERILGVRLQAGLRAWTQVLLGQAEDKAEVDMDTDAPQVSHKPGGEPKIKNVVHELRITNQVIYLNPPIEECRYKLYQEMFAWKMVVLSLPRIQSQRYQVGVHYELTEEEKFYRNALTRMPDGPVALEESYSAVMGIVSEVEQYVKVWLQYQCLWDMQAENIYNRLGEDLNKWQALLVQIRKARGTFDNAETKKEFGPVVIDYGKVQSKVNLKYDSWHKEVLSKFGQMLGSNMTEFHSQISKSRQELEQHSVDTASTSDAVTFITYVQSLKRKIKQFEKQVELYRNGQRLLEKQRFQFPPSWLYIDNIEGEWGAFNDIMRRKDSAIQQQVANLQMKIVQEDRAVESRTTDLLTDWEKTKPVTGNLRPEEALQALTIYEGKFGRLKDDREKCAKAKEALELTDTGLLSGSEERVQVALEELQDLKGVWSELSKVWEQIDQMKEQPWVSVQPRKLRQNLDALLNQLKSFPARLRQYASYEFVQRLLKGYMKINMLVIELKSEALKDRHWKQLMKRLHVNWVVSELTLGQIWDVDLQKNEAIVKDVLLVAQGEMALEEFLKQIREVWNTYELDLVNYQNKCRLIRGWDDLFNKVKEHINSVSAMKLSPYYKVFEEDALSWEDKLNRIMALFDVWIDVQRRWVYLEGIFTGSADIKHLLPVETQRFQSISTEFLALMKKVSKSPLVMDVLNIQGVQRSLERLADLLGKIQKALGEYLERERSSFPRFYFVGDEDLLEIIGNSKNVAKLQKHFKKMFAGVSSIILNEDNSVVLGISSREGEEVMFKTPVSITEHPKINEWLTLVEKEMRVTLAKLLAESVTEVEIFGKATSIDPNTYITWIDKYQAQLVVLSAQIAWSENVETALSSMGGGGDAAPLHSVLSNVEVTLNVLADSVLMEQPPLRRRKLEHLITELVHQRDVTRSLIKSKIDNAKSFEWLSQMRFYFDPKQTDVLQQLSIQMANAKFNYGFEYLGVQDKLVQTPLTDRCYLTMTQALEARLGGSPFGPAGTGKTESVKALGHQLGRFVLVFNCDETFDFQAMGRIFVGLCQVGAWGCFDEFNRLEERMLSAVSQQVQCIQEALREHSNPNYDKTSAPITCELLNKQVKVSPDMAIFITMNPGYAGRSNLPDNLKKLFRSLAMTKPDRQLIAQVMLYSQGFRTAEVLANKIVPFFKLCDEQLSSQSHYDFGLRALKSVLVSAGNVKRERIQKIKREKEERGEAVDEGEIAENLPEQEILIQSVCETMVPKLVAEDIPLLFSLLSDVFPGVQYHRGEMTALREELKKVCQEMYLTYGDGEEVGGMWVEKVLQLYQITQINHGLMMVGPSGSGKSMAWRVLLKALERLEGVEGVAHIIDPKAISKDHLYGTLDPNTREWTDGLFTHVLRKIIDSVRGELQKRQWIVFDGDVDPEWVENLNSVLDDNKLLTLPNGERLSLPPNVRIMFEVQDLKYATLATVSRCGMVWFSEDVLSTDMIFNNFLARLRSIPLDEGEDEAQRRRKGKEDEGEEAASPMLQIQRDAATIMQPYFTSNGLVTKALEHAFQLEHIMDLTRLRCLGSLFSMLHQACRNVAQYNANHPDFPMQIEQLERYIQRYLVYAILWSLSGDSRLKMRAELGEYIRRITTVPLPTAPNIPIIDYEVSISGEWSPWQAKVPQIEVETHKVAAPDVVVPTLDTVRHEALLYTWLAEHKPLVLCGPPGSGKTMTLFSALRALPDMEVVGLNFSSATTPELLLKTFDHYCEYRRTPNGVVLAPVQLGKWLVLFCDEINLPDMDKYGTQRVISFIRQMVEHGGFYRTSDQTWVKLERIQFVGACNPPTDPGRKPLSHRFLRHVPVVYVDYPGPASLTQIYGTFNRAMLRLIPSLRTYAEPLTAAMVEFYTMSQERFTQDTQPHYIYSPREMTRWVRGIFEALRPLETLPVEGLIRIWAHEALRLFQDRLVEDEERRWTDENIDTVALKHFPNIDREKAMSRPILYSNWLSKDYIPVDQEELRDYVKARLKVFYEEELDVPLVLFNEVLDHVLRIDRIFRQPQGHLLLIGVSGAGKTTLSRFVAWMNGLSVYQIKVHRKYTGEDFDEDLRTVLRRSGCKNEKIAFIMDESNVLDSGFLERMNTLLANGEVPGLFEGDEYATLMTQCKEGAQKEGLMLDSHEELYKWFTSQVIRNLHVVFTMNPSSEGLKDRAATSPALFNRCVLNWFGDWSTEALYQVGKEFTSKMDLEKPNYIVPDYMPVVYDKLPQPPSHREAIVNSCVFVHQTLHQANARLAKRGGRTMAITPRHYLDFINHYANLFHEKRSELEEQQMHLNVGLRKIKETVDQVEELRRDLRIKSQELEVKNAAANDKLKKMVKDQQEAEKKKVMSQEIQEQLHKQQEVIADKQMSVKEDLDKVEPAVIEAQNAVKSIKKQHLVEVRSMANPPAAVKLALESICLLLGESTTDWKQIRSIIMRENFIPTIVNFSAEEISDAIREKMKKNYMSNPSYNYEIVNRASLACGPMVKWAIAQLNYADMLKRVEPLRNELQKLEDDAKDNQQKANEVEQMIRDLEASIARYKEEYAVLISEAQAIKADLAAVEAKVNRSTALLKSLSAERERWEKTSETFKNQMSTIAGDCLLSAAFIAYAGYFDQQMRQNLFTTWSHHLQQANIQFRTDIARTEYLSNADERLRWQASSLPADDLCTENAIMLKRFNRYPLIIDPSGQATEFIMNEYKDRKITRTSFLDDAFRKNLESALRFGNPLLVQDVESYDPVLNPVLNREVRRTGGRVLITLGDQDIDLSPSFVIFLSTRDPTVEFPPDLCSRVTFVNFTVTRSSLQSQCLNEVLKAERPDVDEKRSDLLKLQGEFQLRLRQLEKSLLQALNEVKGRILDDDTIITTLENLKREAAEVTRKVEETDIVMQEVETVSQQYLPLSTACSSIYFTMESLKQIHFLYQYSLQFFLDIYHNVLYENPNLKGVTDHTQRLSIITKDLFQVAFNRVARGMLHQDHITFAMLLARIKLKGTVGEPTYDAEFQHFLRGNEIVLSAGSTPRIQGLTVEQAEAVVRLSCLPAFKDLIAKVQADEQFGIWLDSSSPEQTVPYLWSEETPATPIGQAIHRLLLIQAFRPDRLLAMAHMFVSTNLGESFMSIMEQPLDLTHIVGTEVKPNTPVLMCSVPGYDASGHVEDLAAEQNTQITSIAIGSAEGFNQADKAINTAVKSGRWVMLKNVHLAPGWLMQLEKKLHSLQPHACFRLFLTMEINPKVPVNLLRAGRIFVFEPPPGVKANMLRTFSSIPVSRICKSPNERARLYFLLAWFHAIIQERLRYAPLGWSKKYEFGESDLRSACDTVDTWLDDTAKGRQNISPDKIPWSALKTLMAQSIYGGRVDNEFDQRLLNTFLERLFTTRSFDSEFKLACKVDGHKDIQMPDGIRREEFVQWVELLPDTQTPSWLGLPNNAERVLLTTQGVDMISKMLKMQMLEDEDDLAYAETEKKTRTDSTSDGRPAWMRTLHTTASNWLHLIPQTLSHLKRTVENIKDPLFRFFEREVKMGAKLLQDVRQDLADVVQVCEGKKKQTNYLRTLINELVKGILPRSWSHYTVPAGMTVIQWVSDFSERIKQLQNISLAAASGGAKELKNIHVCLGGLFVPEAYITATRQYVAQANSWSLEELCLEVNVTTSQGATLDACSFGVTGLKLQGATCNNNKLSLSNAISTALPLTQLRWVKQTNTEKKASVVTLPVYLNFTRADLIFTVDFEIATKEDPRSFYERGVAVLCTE

Test [2] deals with FLAG-hDYNLRB2 (human) (UniProt Q8TF09). Nature of the test: co-IP; FLAG-IP (anti-FLAG M2 Affinity Gel, eluted with 3x FLAG peptide) from lysates of HeLa cells stably expressing GFP-labeled dynein HC and transfected with FLAG-hDYNLRB1 or FLAG-hDYNLRB2; GFP-dynein in the eluate seen by single-molecule imaging on microtubules.

No constants are given. Whether binding was seen depends on the method and setting. For some assays here: Binding seen in cells or lysates may run through a third protein. Some binding calls cover weakened binding; strength is not graded here.

For “DYNC1I1, yeast two-hybrid prey (in pGADT7) (from UniProt O88485 1-628)”, the binding entry in test [1] is reported as “binds”.

Turning to “GFP-labeled dynein HC (from UniProt Q14204 1-4646)”, the binding result in test [2] is “binds”.

The values are drawn from publication PMC10042829.
